Test results from PubChem BioAssay AID1347423 (Functional Genomics Laboratory (NCATS/FGL), 2020).
Screen size: about 52,000 sequences; about 210 (0.4%) were called active.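 Rule for the calls: active = gene whose silencing raises cell survival under the drug, median off-target-corrected z-score across its silencing RNAs 2 or more; inactive = the rest.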 The list shows a part of the results.

Test: Resistance to Poly (ADP-Ribose) Polymerase inhibitor: Gene Identification via Genome-wide siRNA Screen
Conditions: mouse BRCA2 R2336H ES cells, olaparib, CellTiter-Glo viability; stronger effect = higher value
Method in brief: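 Genome-wide siRNA screen (3 siRNAs/gene, 20 nM) in mouse ES cells carrying hypomorphic BRCA2 R2336H; olaparib 500 nM added 48 h post-transfection, CellTiter-Glo viability 72 h later. Normalized to plate-median negative control; MAD z-scores, gene median, seed-adjusted.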

Sequence	z-score
GGCUGGCUGGAAAAAAGGUTT against Zfp336	inactive: -1.03
CGUGGUUCCCAUCAGAAAGTT against 2410116G06Rik	inactive: -1.15
GGCUCUUCCGAGAACAUCCTT against Kcne4	inactive: 0.507
GGCAGAAUGGCUAUCUAGATT against 1810074P20Rik	inactive: 0.726
GGGACAUGGACAAUAAACCTT against Wnt10a	inactive: 1.46
GGUGCAGACCUCUGACAAATT against Pdlim7	inactive: 0.291
GGUCUUUGAAUGGAACAAUTT against Aldh7a1	inactive: 0.00314
GGCAAUUUCCUUAUUAGAUTT against Nol5	inactive: 1.73
GGAUGUGCUAAUGAGGCCATT against Tjp3	inactive: -0.389
GGCAUACCUGGAGAAGUGUTT against 2600010E01Rik	inactive: -0.754
GGGCAUGCGGAUCUUCUUATT against Sbp	inactive: 0.235
GGAACACAGAGAAUGGCUCTT against Rnf126	inactive: 0.307
GGGAUCCCGCAAAAUCAGATT against Osm	inactive: 0.325
GGGACUCGUGCAACAUUAUTT against 1700001D09Rik	inactive: -1.48
GGAUGAAAUGAACCUAGAGTT against G431001E03Rik	inactive: -0.722
GGAAAGUACCCUAGGAGUUTT against 4921509C19Rik	inactive: -2.35
GGAUUGCUUCACCACAUGUTT against Fes	inactive: 0.279
GGGCAUACAUGAUCCUCCUTT against Gpr39	inactive: -0.839
GGAAAUGACCAAAGAGGCUTT against G630009D10Rik	inactive: -0.339
GCUCUCUACGAUGAGGUCATT against 2500002K03Rik	inactive: -1.45
GGCAUAGGAAACACCAAGATT against Xdh	inactive: -0.732
GGAGUGUUUCCUGUCUCCUTT against Rad54l	inactive: 0.3

Sequence	z-score
CGAACUUCUUAAUAAACAGTT against Slc7a2	inactive: 0.256
GGAAAACUCUCUGCAUUAUTT against Stx7	inactive: 0.166
GGCCCUAGCACUUUUUGUCTT against Ush2a	inactive: 0.237
CCUUAGCUUACCUAGUGGUTT against Tssc4	inactive: 1.3
GGUCGGUUCUCUUCACUGATT against 1700025G04Rik	inactive: 0.64
GGCAUGAGAACUAGUCUGCTT against Duox2	inactive: -0.792
GGAGUUUUUACAGUGCUUUTT against B830045N13Rik	inactive: 1.89
CCACAACCCUUGAGGAUGUTT against Samd11	inactive: 1.81
GGUUUGAGAGUGGUAAUCUTT against 6530406M24Rik	inactive: -1.21
GCGUGGUGAACAACUAUGCTT against AB041549	inactive: 0.247
GGUUAUUUGGUCCUCGUAGTT against Ccs	inactive: -1.79
GGUAUAAACUAUUUGUACCTT against Gnb4	inactive: -0.379
GGUAUAGAUGACCAGAAGATT against 0610040D20Rik	inactive: -2.5
CCUUCCUACAACAAGUGUGTT against Galnt1	inactive: -0.12
GCCACUAUUACUCUGAUACTT against Birc1c	inactive: 0.655
GGACAUUCAACUGUACCACTT against Sepm	inactive: 0.439
GGAAGCAGAUGCAGCUGUUTT against Cml5	inactive: -0.755
CGCAGAAAGUUGUUAACCCTT against 1110030H18Rik	inactive: -0.0265
GGAUGGUUGUGAGGAUUACTT against Paip1	inactive: 1.85
GGAUGCUAGACAAGAAUCCTT against Camkk1	inactive: 0.115
GGUGCAAGUUUUUCAGUCUTT against Gats	inactive: -1.91
GGCAAAAUAACUGACUUCATT against Rps4x	inactive: -2.97

Sequence	z-score
GCAACUCUUAUUUGGAUGCTT against Dbpht1	inactive: -0.34
GCCAGUAACCAGAAAAUUGTT against Sycp3	inactive: -0.187
CCAAGAUUAACCAUAACACTT against Mrpl50	inactive: -0.0482
CCAAUCUGCACCCUAUGUCTT against Cs	inactive: -0.558
GGCUAUAAAAAGAAGUACCTT against Pdgfrb	inactive: -0.494
GGACAAAGAGGAAUGGAUATT against Tank	inactive: -0.113
GCCCAUUAUUGCUGAGACUTT against 1700063I17Rik	inactive: -0.413
GGCAUUUAGCCAAAAGUUCTT against 1700025J14Rik	inactive: -0.0771
GGAGAUAUGGCCAUCACUCTT against 4930584N22Rik	inactive: 0.199
GGAAGUGCAAGGUUUACAATT against 9930104E21Rik	inactive: -1.19
GCUUACCAAAGGCUAUUUGTT against Anxa13	inactive: 0.274
CCGCUCACAACUUCUACAGTT against Lmo6	inactive: -1.14
GGAGAGGCUUUUCAUUGAUTT against 4930457P18Rik	inactive: 0.0958
GGUCUUAACUGUGAACAACTT against Dner	inactive: -0.16
GGGUCUCAGCAGUGCAAACTT against Txnip	inactive: 0.0441
GGUCAAACAGGAAGACAGATT against Ubc	inactive: -1.46
GCCUUUUGAUGCUUCCUCUTT against BC017158	inactive: -2.36
GGACAAAAGCAAAGAAAAGTT against 1300003K24Rik	inactive: 0.583
GGAGAAACUAUGAUCUUUATT against Mmp13	inactive: 0.911
GGACAAGAAAAAAAACCUGTT against Mrvi1	inactive: 0.235
GGCAACAUCAAAGAAAGGATT against Rad51l1	inactive: -0.89
GGGAUAAAAACCAUGGUUUTT against E330017N17	inactive: 0.00847
